These results are taken from paper PMC8730729.

Sequences of proteins named here, by UniProt entry; tags and fusion partners are left off.
UniProt Q86V87: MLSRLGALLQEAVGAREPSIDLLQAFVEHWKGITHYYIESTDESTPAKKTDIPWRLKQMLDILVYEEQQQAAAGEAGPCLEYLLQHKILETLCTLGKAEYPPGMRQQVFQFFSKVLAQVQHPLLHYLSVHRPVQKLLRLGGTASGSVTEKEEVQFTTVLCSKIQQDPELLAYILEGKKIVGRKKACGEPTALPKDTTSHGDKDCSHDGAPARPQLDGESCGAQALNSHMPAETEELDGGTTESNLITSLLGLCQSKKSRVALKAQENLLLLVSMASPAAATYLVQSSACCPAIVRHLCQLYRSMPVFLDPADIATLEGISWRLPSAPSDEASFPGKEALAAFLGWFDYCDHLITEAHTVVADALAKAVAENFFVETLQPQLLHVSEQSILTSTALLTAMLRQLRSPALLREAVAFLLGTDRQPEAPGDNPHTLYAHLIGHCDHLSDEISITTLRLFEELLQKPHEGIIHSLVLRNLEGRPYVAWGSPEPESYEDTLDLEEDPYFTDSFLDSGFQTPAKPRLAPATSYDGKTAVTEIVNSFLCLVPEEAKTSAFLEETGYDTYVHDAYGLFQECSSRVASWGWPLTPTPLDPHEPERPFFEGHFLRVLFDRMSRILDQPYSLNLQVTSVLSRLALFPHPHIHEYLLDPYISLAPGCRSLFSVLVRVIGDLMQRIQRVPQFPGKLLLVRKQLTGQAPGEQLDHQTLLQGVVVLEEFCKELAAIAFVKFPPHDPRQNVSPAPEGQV

Assay in all cases: proximity labelling; BioID2 fused to the carboxy terminus of the bait in stable doxycycline-inducible 293T lines; 50 µM biotin 16 hr; RIPA lysis, streptavidin beads, on-bead digestion, MS; hits ≥threefold over cytoplasmic BioID2 control or absent from it, p < 0.05, three of four replicates
For test [1], the target named is FHIP2A tagged at the carboxy terminus with BioID2 and 3xFLAG (human) (UniProt Q5W0V3).
Test [2] deals with FHIP2B tagged at the carboxy terminus with BioID2 and 3xFLAG (human) (UniProt Q86V87).
In test [3] the target is FHIP1A tagged at the carboxy terminus with BioID2 and 3xFLAG (human) (UniProt Q05DH4).

No constants are given. Whether binding was seen depends on the method and setting. Binding seen in cells or lysates may run through a third protein. These calls come from enrichment with a bait or labelling near it, and not all partners need be listed. For some assays here: Tags and fused reporters may be left off the sequences shown.

B1: carboxypeptidase D, endogenous in 293T cells (protein, UniProt O75976 32-1380)
chain: AHIKKAEATTTTTSAGAEAAEGQFDRYYHEEELESALREAAAAGLPGLARLFSIGRSVEGRPLWVLRLTAGLGSLIPEGDAGPDAAGPDAAGPLLPGRPQVKLVGNMHGDETVSRQVLIYLARELAAGYRRGDPRLVRLLNTTDVYLLPSLNPDGFERAREGDCGFGDGGPSGASGRDNSRGRDLNRSFPDQFSTGEPPALDEVPEVRALIEWIRRNKFVLSGNLHGGSVVASYPFDDSPEHKATGIYSKTSDDEVFKYLAKAYASNHPIMKTGEPHCPGDEDETFKDGITNGAHWYDVEGGMQDYNYVWANCFEITLELSCCKYPPASQLRQEWENNRESLITLIEKVHIGVKGFVKDSITGSGLENATISVAGINHNITTGRFGDFYRLLVPGTYNLTVVLTGYMPLTVTNVVVKEGPATEVDFSLRPTVTSVIPDTTEAVSTASTVAIPNILSGTSSSYQPIQPKDFHHHHFPDMEIFLRRFANEYPNITRLYSLGKSVESRELYVMEISDNPGVHEPGEPEFKYIGNMHGNEVVGRELLLNLIEYLCKNFGTDPEVTDLVHNTRIHLMPSMNPDGYEKSQEGDSISVIGRNNSNNFDLNRNFPDQFVQITDPTQPETIAVMSWMKSYPFVLSANLHGGSLVVNYPFDDDEQGLATYSKSPDDAVFQQIALSYSKENSQMFQGRPCKNMYPNEYFPHGITNGASWYNVPGGMQDWNYLQTNCFEVTIELGCVKYPLEKELPNFWEQNRRSLIQFMKQVHQGVRGFVLDATDGRGILNATISVAEINHPVTTYKTGDYWRLLVPGTYKITASARGYNPVTKNVTVKSEGAIQVNFTLVRSSTDSNNESKKGKGASSSTNDASDPTTKEFETLIKDLSAENGLESLMLRSSSNLALALYRYHSYKDLSEFLRGLVMNYPHITNLTNLGQSTEYRHIWSLEISNKPNVSEPEEPKIRFVAGIHGNAPVGTELLLALAEFLCLNYKKNPAVTQLVDRTRIVIVPSLNPDGRERAQEKDCTSKIGQTNARGKDLDTDFTNNASQPETKAIIENLIQKQDFSLSVALDGGSMLVTYPYDKPVQTVENKETLKHLASLYANNHPSMHMGQPSCPNKSDENIPGGVMRGAEWHSHLGSMKDYSVTYGHCPEITVYTSCCYFPSAARLPSLWADNKRSLLSMLVEVHKGVHGFVKDKTGKPISKAVIVLNEGIKVQTKEGGYFHVLLAPGVHNIIAIADGYQQQHSQVFVHHDAASSVVIVFDTDNRIFGLPRELVVTVSGATMSALILTACIIWCICSIKSNRHKDGFHRLRQHHDEYEDEIRMMSTGSKKSLLSHEFQDETDTEEETLYSSKH
Turning to B1, the binding result in test [1] and in test [2] was “binds” in each case.

B2: Hook3, endogenous in 293T cells (protein, UniProt Q86VS8 1-718)
chain: MFSVESLERAELCESLLTWIQTFNVDAPCQTVEDLTNGVVMAQVLQKIDPAYFDENWLNRIKTEVGDNWRLKISNLKKILKGILDYNHEILGQQINDFTLPDVNLIGEHSDAAELGRMLQLILGCAVNCEQKQEYIQAIMMMEESVQHVVMTAIQELMSKESPVSAGNDAYVDLDRQLKKTTEELNEALSAKEEIAQRCHELDMQVAALQEEKSSLLAENQVLMERLNQSDSIEDPNSPAGRRHLQLQTQLEQLQEETFRLEAAKDDYRIRCEELEKEISELRQQNDELTTLADEAQSLKDEIDVLRHSSDKVSKLEGQVESYKKKLEDLGDLRRQVKLLEEKNTMYMQNTVSLEEELRKANAARSQLETYKRQVVELQNRLSEESKKADKLDFEYKRLKEKVDSLQKEKDRLRTERDSLKETIEELRCVQAQEGQLTTQGLMPLGSQESSDSLAAEIVTPEIREKLIRLQHENKMLKLNQEGSDNEKIALLQSLLDDANLRKNELETENRLVNQRLLEVQSQVEELQKSLQDQGSKAEDSVLLKKKLEEHLEKLHEANNELQKKRAIIEDLEPRFNNSSLKIEELQEALRKKEEEMKQMEERYKKYLEKAKSVIRTLDPKQNQGAAPEIQALKNQLQERDRLFHSLEKEYEKTKSQREMEEKYIVSAWYNMGMTLHKKAAEDRLASTGSGQSFLARQRQATSSRRSYPGHVQPATAR
In the case of B2, the binding result in test [3], in test [1] and in test [2] was “binds” each time.

B3: SNX30, endogenous in 293T cells (protein, UniProt Q5VWJ9 1-437)
chain: MAGGPPKALPSTGPHSLRDMPHPLAGSSSEEAVGGDSTPSPDLLMARSFGDKDLILPNGGTPAGTSSPASSSSLLNRLQLDDDIDGETRDLFVIVDDPKKHVCTMETYITYRITTKSTRVEFDLPEYSVRRRYQDFDWLRSKLEESQPTHLIPPLPEKFVVKGVVDRFSEEFVETRRKALDKFLKRITDHPVLSFNEHFNIFLTAKDLNAYKKQGIALLTRMGESVKHVTGGYKLRTRPLEFAAIGDYLDTFALKLGTIDRIAQRIIKEEIEYLVELREYGPVYSTWSALEGELAEPLEGVSACIGNCSTALEELTDDMTEDFLPVLREYILYSDSMKSVLKKRDQVQAEYEAKLEAVALRKEDRPKVPADVEKCQDRMECFNADLKADMERWQNNKRQDFRQLLMGMADKNIQYYEKCLMAWESIIPLLQEKQEAK
In the case of B3, the binding entry in test [3] is recorded as “binds”.

B4: KIAA0319L, endogenous in 293T cells (protein, UniProt Q8IZA0 1-1049)
chain: MEKRLGVKPNPASWILSGYYWQTSAKWLRSLYLFYTCFCFSVLWLSTDASESRCQQGKTQFGVGLRSGGENHLWLLEGTPSLQSCWAACCQDSACHVFWWLEGMCIQADCSRPQSCRAFRTHSSNSMLVFLKKFQTADDLGFLPEDDVPHLLGLGWNWASWRQSPPRAALRPAVSSSDQQSLIRKLQKRGSPSDVVTPIVTQHSKVNDSNELGGLTTSGSAEVHKAITISSPLTTDLTAELSGGPKNVSVQPEISEGLATTPSTQQVKSSEKTQIAVPQPVAPSYSYATPTPQASFQSTSAPYPVIKELVVSAGESVQITLPKNEVQLNAYVLQEPPKGETYTYDWQLITHPRDYSGEMEGKHSQILKLSKLTPGLYEFKVIVEGQNAHGEGYVNVTVKPEPRKNRPPIAIVSPQFQEISLPTTSTVIDGSQSTDDDKIVQYHWEELKGPLREEKISEDTAILKLSKLVPGNYTFSLTVVDSDGATNSTTANLTVNKAVDYPPVANAGPNQVITLPQNSITLFGNQSTDDHGITSYEWSLSPSSKGKVVEMQGVRTPTLQLSAMQEGDYTYQLTVTDTIGQQATAQVTVIVQPENNKPPQADAGPDKELTLPVDSTTLDGSKSSDDQKIISYLWEKTQGPDGVQLENANSSVATVTGLQVGTYVFTLTVKDERNLQSQSSVNVIVKEEINKPPIAKITGNVVITLPTSTAELDGSKSSDDKGIVSYLWTRDEGSPAAGEVLNHSDHHPILFLSNLVEGTYTFHLKVTDAKGESDTDRTTVEVKPDPRKNNLVEIILDINVSQLTERLKGMFIRQIGVLLGVLDSDIIVQKIQPYTEQSTKMVFFVQNEPPHQIFKGHEVAAMLKSELRKQKADFLIFRALEVNTVTCQLNCSDHGHCDSFTKRCICDPFWMENFIKVQLRDGDSNCEWSVLYVIIATFVIVVALGILSWTVICCCKRQKGKPKRKSKYKILDATDQESLELKPTSRAGIKQKGLLLSSSLMHSESELDSDDAIFTWPDREKGKLLHGQNGSVPNGQTPLKARSPREEIL
Regarding B4, the binding result in test [1] and in test [2] was “binds” throughout.
